Measured data: PubChem BioAssay AID720505 (Drosophila RNAi Screening Center, 2013)
Purpose: 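Genes needed for store-operated calcium entry in fly cells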 (primary screen). System: Drosophila S2R+ cells. Reagent: long dsRNA against Drosophila genes. Conditions: thapsigargin (2 µM) in calcium-free buffer to empty internal stores, then 2 mM calcium added back. Detection: 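Stores emptied by 2 µM thapsigargin without calcium, then 2 mM calcium re-added; fluo-4 fluorescence followed by FLIPR in 384-well plates, per-well averaged endpoint, raw; two screen passes, some wells retested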. Scale: calcium signal and retest calcium signal: higher = more calcium entry after store depletion. Call rule: 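About 1500 genes called as lowering calcium entry, by varying amounts, judged against per-plate control wells with STIM1 as positive and Rho1 as negative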. Meaning of the calls: active = called as lowering calcium entry; inactive = not called.
The deposit covers about 20,000 reagents; shown is an unselected part of those that have a named target and a result. Of all reagents, about 2,100 (10%) were called active. 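Raw plate signals without normalisation; calls rest on control-based scores that were not deposited; replicate 2 separates called from uncalled poorly.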 Reagents against one gene are numbered here. No sequences are given here. Not stated in the record: the amount of reagent, the time to read-out.

tub #1 scored calcium signal, replicate 1 = 120; calcium signal, replicate 2 = 85.6; retest calcium signal, replicate 1 = 183; retest calcium signal, replicate 2 = 158; inactive. Knock-down of tub #2 gave: calcium signal, replicate 1 = 96.1; calcium signal, replicate 2 = 125; inactive. Depletion of qless #1 came out at: calcium signal, replicate 1 = 140; calcium signal, replicate 2 = 129; inactive. Depletion of qless #2 came out at: calcium signal, replicate 1 = 149; calcium signal, replicate 2 = 131; inactive. Against shu, the entry reads calcium signal, replicate 1 = 86.4; calcium signal, replicate 2 = 74.1; inactive. GluRIIB gave calcium signal, replicate 1 = 113; calcium signal, replicate 2 = 113; inactive.

With knock-down of CG2528, the screen gave calcium signal, replicate 1 = 127; calcium signal, replicate 2 = 115; inactive. CR43361 gave calcium signal, replicate 1 = 65.3; calcium signal, replicate 2 = 117; active. After knock-down of Dhfr, the record shows calcium signal, replicate 1 = 124; calcium signal, replicate 2 = 143; inactive. Silencing of CG10657 gave: calcium signal, replicate 1 = 85.7; calcium signal, replicate 2 = 126; retest calcium signal, replicate 1 = 168; retest calcium signal, replicate 2 = 172; inactive. Depletion of CG2983 gave: calcium signal, replicate 1 = 217; calcium signal, replicate 2 = 118; inactive. shrb showed calcium signal, replicate 1 = 146; calcium signal, replicate 2 = 94.1; inactive.
